Results as given in the supplement of paper PMC4604168 (melanoma cell lines).
Some of the results follow. Repeats are few or missing, and single values can be far off.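 Cells were imaged in 1,536-well plates, and nuclei stained with an antibody against cleaved PARP were counted against all DNA-stained nuclei to give the apoptosis fraction. Screening doses were chosen to leave most cells alive, and resting and induced cleaved-PARP levels differ strongly between cell lines.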

Key:
Assay in all cases: cleaved PARP positive nuclei fraction relative to DMSO control; melanoma cells; higher = more apoptosis
Settings in all cases: library dose: low library concentration; 72 h
[1] = test system: CBRC034 (line from a melanoma biopsy)
[2] = test system: COLO792
[3] = test system: COLO800
[4] = test system: COLO829
[5] = test system: G361
[6] = test system: IPC-298
[7] = test system: IST-MEL1
[8] = test system: LB2518-MEL
[9] = test system: LOXIMVI
[10] = test system: MEL-HO
[11] = test system: MZ2-MEL
[12] = test system: MeWo
[13] = test system: RPMI7951
[14] = test system: RVH-421
[15] = test system: SkMel28
[16] = test system: SkMel2
[17] = test system: SkMel30
[18] = test system: UACC62

Compound | cleaved PARP positive nuclei fraction [1] | cleaved PARP positive nuclei fraction [2] | cleaved PARP positive nuclei fraction [3] | cleaved PARP positive nuclei fraction [4] | cleaved PARP positive nuclei fraction [5] | cleaved PARP positive nuclei fraction [6] | cleaved PARP positive nuclei fraction [7] | cleaved PARP positive nuclei fraction [8] | cleaved PARP positive nuclei fraction [9] | cleaved PARP positive nuclei fraction [10] | cleaved PARP positive nuclei fraction [11] | cleaved PARP positive nuclei fraction [12] | cleaved PARP positive nuclei fraction [13] | cleaved PARP positive nuclei fraction [14] | cleaved PARP positive nuclei fraction [15] | cleaved PARP positive nuclei fraction [16] | cleaved PARP positive nuclei fraction [17] | cleaved PARP positive nuclei fraction [18]
CCCCCCCCCCCCCCCCCCOP(=O)([O-])OC1CC[N+](C)(C)CC1 [Perifosine] + Cc1nc(Nc2ncc(C(=O)Nc3c(C)cccc3Cl)s2)cc(N2CCN(CCO)CC2)n1 [dasatanib] (first compound 0.4 µM, partner dose 0.004 µM) | 118% | 187% | 116% | 134% | 70.4% | 41.1% | 86.1% | 47.8% | 133% | 55.2% | 104% | 88.4% | 94.6% | 122% | 407% | 177% | 89.8% | 359%
N#CC[C@H](C1CCCC1)n1cc(-c2ncnc3[nH]ccc23)cn1 [ruxolitinib] + Cn1nnc2c(C(N)=O)ncn2c1=O [temozolomide] (first compound 1 µM, partner dose 2 µM) | 59.6% | 126% | 44.6% | 58.4% | 140% | 81.8% | 66.6% | 55.8% | 279% | 165% | 101% | 197% | 95.2% | 89.5% | 80.3% | 154% | 44% | 84.4%
Cc1cn(-c2cc(NC(=O)c3ccc(C)c(Nc4nccc(-c5cccnc5)n4)c3)cc(C(F)(F)F)c2)cn1 [nilotinib] + CC(=O)c1c(C)c2cnc(Nc3ccc(N4CCNCC4)cn3)nc2n(C2CCCC2)c1=O [palbociclib] (first compound 0.2 µM, partner dose 0.04 µM) | 128% | 58.6% | 177% | 327% | 116% | 65% | 33.9% | 118% | 55.3% | 74.5% | 92.3% | 37.6% | 107% | 93.4% | 77.4% | 32.6% | 43.9% | 44.6%
CCCCCCCCCCCCCCCCCCOP(=O)([O-])OC1CC[N+](C)(C)CC1 [Perifosine] + Cn1sc(=O)n(Cc2ccccc2)c1=O [TDZD-8] (first compound 0.4 µM, partner dose 0.4 µM) | 54.5% | 121% | 168% | 86.3% | 90.7% | 128% | 163% | 30.9% | 226% | 111% | 69.5% | 77.5% | 130% | 216% | 103% | 67.5% | 40.8% | 182%
CC[C@]1(O)C[C@H]2CN(CCc3c([nH]c4ccccc34)[C@@](C(=O)OC)(c3cc4c(cc3OC)N(C=O)[C@H]3[C@@](O)(C(=O)OC)[C@H](OC(C)=O)[C@]5(CC)C=CCN6CC[C@]43[C@@H]65)C2)C1 [vincristine] + CNC(=O)c1cc(Oc2ccc(NC(=O)Nc3ccc(Cl)c(C(F)(F)F)c3)cc2)ccn1 [sorafenib] (first compound 0.0001 µM, partner dose 0.4 µM) | 79.7% | 55.9% | 74% | 184% | 103% | 96.6% | 68.8% | 241% | 168% | 121% | 235% | 105% | 259% | 45.8% | 112% | 213% | 233% | 97.6%
O=C(Nc1cc(C(F)(F)F)cc(C(F)(F)F)c1)c1cc(Cl)ccc1O + O=C(O)[C@@H]1[O][Sb](=[O])([O][Sb]2(=[O])[O][C@H]([C@H](O)CO)[C@H](O)[C@H](C(=O)O)[O]2)[O][C@H]([C@H](O)CO)[C@@H]1O [stibogluconate] (first compound 0.016 µM, partner dose 2 µM) | 123% | 87.5% | 62.7% | 77.6% | 94.2% | 167% | 150% | 56.4% | 49.9% | 69.1% | 270% | 112% | 33.4% | 65.8% | 42.6% | 64% | 231% | 23.3%
Cc1ccc(Nc2nccc(N(C)c3ccc4c(C)n(C)nc4c3)n2)cc1S(N)(=O)=O [Pazopanib] + CN1CCN(c2ccc3nc(-c4c(N)c5c(F)cccc5[nH]c4=O)[nH]c3c2)CC1 [Dovitinib] (first compound 0.4 µM, partner dose 0.1 µM) | 122% | 89.9% | 73.6% | 46.1% | 202% | 135% | 91.2% | 170% | 111% | 58.9% | 159% | 52.4% | 57.8% | 73.5% | 50.4% | 70.5% | 52.4% | 183%
CCCCCCCCCCCCCCCCCCOP(=O)([O-])OC1CC[N+](C)(C)CC1 [Perifosine] + Cc1cc(Nc2cc(N3CCN(C)CC3)nc(/C=C/c3ccccc3)n2)n[nH]1 [ENMD2076] (first compound 0.4 µM, partner dose 0.04 µM) | 33.6% | 85.4% | 135% | 128% | 113% | 83.6% | 116% | 52% | 75.5% | 78.8% | 65.9% | 100% | 63.6% | 388% | 85.9% | 153% | 258% | 152%
N#CC[C@H](C1CCCC1)n1cc(-c2ncnc3[nH]ccc23)cn1 [ruxolitinib] + Cc1nc(Nc2ncc(C(=O)Nc3c(C)cccc3Cl)s2)cc(N2CCN(CCO)CC2)n1 [dasatanib] (first compound 1 µM, partner dose 0.004 µM) | 192% | 107% | 92.7% | 68.8% | 100% | 84.6% | 135% | 214% | 163% | 81% | 160% | 88.6% | 131% | 191% | 84.7% | 85.5% | 79.8% | 287%
